The inconclusive results got no clear call from the source; some entries with a clear call stand among them for comparison. A potency beside an inconclusive call is a rough fit, not a confirmed value. Active and inactive are the calls of the source. Calls come from the whole dose curve; as a rule, active = well fitted curve in the direction sought with a large enough effect; inconclusive = small, poorly fitted or top-dose-only effect, or another doubt; inactive = no such curve, though single readings can be large; an effect the other way counts as inactive or inconclusive.
How the values were obtained:
[1] = target: Rap guanine nucleotide exchange factor 4 (Homo sapiens) (UniProt Q8WZA2); assay: Confirmatory qHTS for antagonist of cAMP-regulated guanine nucleotide exchange factor 4 (EPAC2) (AID 1645885); conditions: EPAC2 Rap1B-BODIPY-GDP exchange fluorescence, biochemical; activity change, negative = inhibition: at 12.7 µM (top of the series) unless noted; series mostly up to 114 µM; note: nearly all actives have a fitted effect of over 25% in size; for activity change, negative = inhibition: % is set by controls: 0 for no effect and ±100 for the full control effect
[2] = target: Rap guanine nucleotide exchange factor 3 (Homo sapiens) (UniProt O95398); assay: Counterscreen qHTS for agonist of cAMP-regulated guanine nucleotide exchange factor 3 (EPAC1) (AID 1645889); conditions: EPAC1 Rap1B-BODIPY-GDP exchange, fluorescence; activation: at 154 µM (top of the series) unless noted; note: nearly all actives have a fitted effect of over 40% in size; for activation: % of control where 0% means no effect
Procedure, shortened: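 Rap1B–BODIPY-GDP (250 nM) with 50 uM GDP; compounds pin-transferred to 9.74 nM–152 uM final (activator) or from 7.32 nM upwards (inhibitor). Fluorescence Ex/Em 480/540 nm read at 5 and 30 min, then after adding cAMP or buffer, at room temperature.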
Potency is the fitted concentration of half-maximal effect.

Chains of the proteins cited; added tags and fusions are not shown. Lines headed by an entry give the natural chain unless they say otherwise; changes in a name come on top.
UniProt Q8WZA2: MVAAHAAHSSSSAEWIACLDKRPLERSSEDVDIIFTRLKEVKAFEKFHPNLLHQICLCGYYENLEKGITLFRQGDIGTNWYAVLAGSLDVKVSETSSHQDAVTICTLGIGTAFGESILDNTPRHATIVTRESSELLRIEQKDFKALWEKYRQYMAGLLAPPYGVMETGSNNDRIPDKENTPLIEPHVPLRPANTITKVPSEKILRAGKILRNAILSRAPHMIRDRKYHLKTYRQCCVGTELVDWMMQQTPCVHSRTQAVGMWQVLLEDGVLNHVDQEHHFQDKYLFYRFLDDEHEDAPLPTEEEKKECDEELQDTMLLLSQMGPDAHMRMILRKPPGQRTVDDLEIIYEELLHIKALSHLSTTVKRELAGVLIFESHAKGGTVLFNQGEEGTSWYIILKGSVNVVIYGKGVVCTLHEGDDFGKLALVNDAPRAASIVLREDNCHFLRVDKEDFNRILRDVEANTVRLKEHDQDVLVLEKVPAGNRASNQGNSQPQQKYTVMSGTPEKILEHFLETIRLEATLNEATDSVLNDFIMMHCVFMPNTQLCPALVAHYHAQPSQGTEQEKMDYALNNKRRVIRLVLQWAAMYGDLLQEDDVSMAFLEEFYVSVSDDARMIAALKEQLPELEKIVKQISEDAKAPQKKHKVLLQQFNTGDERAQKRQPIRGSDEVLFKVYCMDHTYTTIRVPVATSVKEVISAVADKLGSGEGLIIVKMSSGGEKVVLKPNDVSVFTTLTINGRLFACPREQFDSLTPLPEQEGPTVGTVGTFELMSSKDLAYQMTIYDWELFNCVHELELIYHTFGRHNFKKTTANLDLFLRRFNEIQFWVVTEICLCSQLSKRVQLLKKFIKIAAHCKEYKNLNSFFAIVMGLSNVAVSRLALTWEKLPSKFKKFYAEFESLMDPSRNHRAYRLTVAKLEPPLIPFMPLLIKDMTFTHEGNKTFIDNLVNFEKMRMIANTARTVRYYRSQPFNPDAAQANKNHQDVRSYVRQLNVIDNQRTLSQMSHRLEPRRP

Row | Structure (SMILES) | Potency [1] | activation [2] | Potency [2]
1 | O=C1OC(c2ccccc2)/C(=C(/O)c2ccccc2)C1=O (centres undefined) | inactive | inconclusive: 40.9% [activator] [at 30.8 µM] | 
2 | Cn1c(SCc2c(Cl)cccc2Cl)nnc1-c1ccc2nonc2c1 | inactive | inconclusive: 59.1% [activator] [at 30.8 µM] | 
3 | CC1=Nc2ccccc2/C1=C/c1sc(=S)n(-c2cccc(C(=O)O)c2)c1O | inactive |  | inconclusive: 0.01 µM [activator, full curve]
4 | COC(=O)c1c(NC(=O)c2c(OC)cccc2OC)sc2c1CCCC2 | inactive |  | inconclusive: 14.1 µM [activator, full curve, poor fit]
5 | CC1Cc2cc(C(=O)O)ccc2O1 (centres undefined) | inactive |  | inactive
6 | COc1cc(CN2C(=O)C(C)ON=C2c2cccs2)cc(OC)c1 (centres undefined) | inconclusive: 0.849 µM [inhibitor, partial curve, poor fit] | inconclusive: 61.2% [activator] | 
7 | COc1ccccc1C1CCN(c2ccc(CO)cc2[N+](=O)[O-])CC1 | inconclusive: 16.9 µM [inhibitor, partial curve, poor fit] |  | inactive
8 | COc1ccc(S(=O)(=O)Nc2ccc(OCC(=O)O)cc2)c2ccccc12 | active: 47.8 µM |  | inactive
9 | COc1ccc(C2=CC(=O)OC3(CCCCC3)O2)cc1 | inconclusive: 2.39 µM [inhibitor, partial curve, poor fit] |  | 
10 | COc1cc(OC)c2c(-c3ccccc3)cc(=O)oc2c1 | inconclusive: 7.57 µM [inhibitor, partial curve, poor fit] |  | inconclusive: 0.562 µM [activator, full curve, poor fit]
11 | CCOC(=O)c1cc2c(ccn2C)n1Cc1ccccc1Cl | inconclusive: 42.6 µM [inhibitor, partial curve] |  | inactive
12 | O=C(COc1ccc(F)cc1)Nc1nccs1 | inactive |  | 
13 | COc1ccccc1C(=O)C1CCCN(C(=O)c2ccc3c(c2)OCCO3)C1 (centres undefined) | inconclusive: 33.8 µM [inhibitor, single point] |  | 
14 | Cc1cnc2ccccc2c1/C=C/c1ccc(N(C)C)cc1 | inconclusive: 39.3 µM [inhibitor, partial curve] |  | 
15 | O=C1c2ccccc2C(Nc2cccnc2)N1Cc1ccccc1Cl (centres undefined) | inconclusive: 75.7 µM [inhibitor, partial curve] |  | inactive
16 | Cc1ccc(NC(=O)CN2C(=O)C(c3ccc(C(C)(C)C)cc3)=NC2(C)C)cc1 | inactive |  | 
17 | C=CCSc1nc2ccccc2c(=O)n1C1CCOC(C)(C)C1 (centres undefined) | inactive | inconclusive: 37.7% [activator] | 
18 | CN(C)C(=O)CCc1ccc2c3c([nH]c2c1)[C@]1(C)[C@@H](C(=O)N2CCCCC2)C[C@H](CC(=O)NCCc2ccccn2)C(=O)N1CC3 | inactive |  | inconclusive: 0.01 µM [activator, full curve, poor fit]
19 | CC(C)Cn1c(SC(C)C(=O)NCC2CCCO2)nc2ccc(Cl)cc2c1=O (centres undefined) | active: 5.36 µM |  | inactive
20 | O=c1ccc(-c2ccccc2)nn1Cc1ccc(Cl)cc1 | inconclusive: 21.3 µM [inhibitor, full curve] |  | inactive
21 | Cc1ccc(CC#N)c(-c2c(CC#N)ccc(C)c2C)c1C | inconclusive: 23.9 µM [inhibitor, full curve] | inconclusive: 51.5% [activator] | 
22 | CCOc1ccc(Br)cc1S(=O)(=O)Nc1ccc(S(=O)(=O)Nc2cc(C)on2)cc1 | inconclusive: 84.9 µM [inhibitor, single point] |  | inactive
23 | CC(=O)NC(c1cccc(F)c1)c1nc(-c2cccs2)cs1 (centres undefined) | inconclusive: 37.9 µM [inhibitor, single point] |  | inactive
24 | CCc1ccccc1NC(=O)c1oc(=O)c2ccccc2c1-c1ccccc1 | inactive |  | inconclusive: 11.2 µM [activator, single point]
25 | Cn1cc(C(C[N+](=O)[O-])c2ccccc2)c2ccccc21 (centres undefined) | inactive | inactive: 13.8% [at 30.8 µM] | 
26 | CCOC(=O)C(Cc1ccc(NC(=O)/C(=C\c2ccccc2)NC(=O)c2ccccc2)cc1)N1C(=O)c2ccccc2C1=O (centres undefined) | inactive | inconclusive: 32.9% [activator] | 
27 | COc1cccc(-c2nc(CS(=O)(=O)CC(=O)N3CCN(C)CC3)c(C)o2)c1 | inconclusive: 84.9 µM [inhibitor, single point] |  | inactive

An excerpt from above in order of length of the SMILES, falling:
Row | Structure (SMILES) | Potency [1] | activation [2] | Potency [2]
6 | COc1cc(CN2C(=O)C(C)ON=C2c2cccs2)cc(OC)c1 (centres undefined) | inconclusive: 0.849 µM [inhibitor, partial curve, poor fit] | inconclusive: 61.2% [activator] | 
10 | COc1cc(OC)c2c(-c3ccccc3)cc(=O)oc2c1 | inconclusive: 7.57 µM [inhibitor, partial curve, poor fit] |  | inconclusive: 0.562 µM [activator, full curve, poor fit]
11 | CCOC(=O)c1cc2c(ccn2C)n1Cc1ccccc1Cl | inconclusive: 42.6 µM [inhibitor, partial curve] |  | inactive
